Results on 106 sequences are retold here after PubChem BioAssay AID1508600 (Functional Genomics Laboratory (NCATS/FGL), 2020).

Screen size: about 53,000 sequences; about 3,700 (7%) were called active.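 Rule for the calls: active = gene knockdowns whose robust z-score for IL-1 alpha signal is at least 2 or at most -2, so actives lie on both sides; inactive = the rest.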 This is one part of the list.

The nature of the assay: Components of the Cytosolic LPS Sensing Pathway: Gene Identification via Genome-wide siRNA Screen. As to conditions: RAW264.7 macrophages, IL-1a HTRF, actives lie on both sides, screened at 100 nM (by protocol), cells primed 5 h with Pam3CSK4 first. From the text:
Non-canonical inflammasome activation by cytosolic LPS is a critical component of the host response to Gram-negative bacterial infection, however we lack a comprehensive understanding of the cellular processes that control this pathway. Here we describe a genome-wide siRNA screen to identify genes regulating the mouse macrophage IL-1 alpha response to cytosolic LPS.
RAW264.7 cells were maintained in complete DMEM media, comprising DMEM with 4.5 g/L glucose, 10% FBS (Gemini Bio-Products, West Sacramento, CA), 2 mM Glutamine (Lonza) and 20 mM HEPES (Lonza), hereafter complete DMEM.
The RNAi screen was conducted in 384-well format using the Ambion Silencer Mouse Genome siRNA Library (#4391425), which consists of three unique, nonoverlapping, nonpooled siRNAs for each of 17,000 gene targets. siRNA reagents ([…]) were stamped into 384-well white flat-bottom microplates (Corning, 3570) using a Velocity11 VPrep liquid handling system (Agilent) integrated into a BioCel robotic platform (Agilent) in columns 1-22, leaving columns 23-24 empty for negative (Ambion, Negative control #1) and positive (mouse Casp4) controls, respectively. The median value of each plate's negative control column was used to normalize sample wells, and the positive control was used to assess transfection efficiency and assay performance.
Lipofectamine RNAiMAX Transfection Reagent ([…]; Invitrogen) was added in […] serum-free, antibiotic-free media to plate wells using a Thermo Scientific Matrix WellMate and Microplate Stacker. Plates were incubated for 45 min at room temperature to allow for the sufficient formation of siRNA-lipid complexes. Cells were seeded at a density of 1x10^4 cells per well in 20 microL media containing 20% (vol/vol) FBS without antibiotics. The final concentration of siRNA in each well was 100 nM. Cells were cultured for 48h at 37 degrees C in 5% CO2 before addition of […] of TLR ligand Pam3CSK4 for 5 hours. The medium was then removed, replaced with […] growth media and cell were transfected with […] of LipidA and TransIT-TKO (Mirus) for 24 hour. At the end of the LipidA treatment, […] of supernatant was transferred to a 384 Greiner Bio-one non-binding low volume plate and […] of IL-1a HTRF reagent (Cisbio, 62MIL1APEH) was added and incubated at room temperature overnight. The plates were read on an EnVision plate reader (PerkinElmer). Cell viability was measured by adding 20ul Cell Titer Glo to the original plate and running a luminescence read on the EnVision. The quantified IL-1a signal for each siRNA gene-targeted well was divided by the median of the negative control wells and multiplied by 100 to achieve a negative control normalized value for each well/siRNA. This normalized value was then used to generate a robust z-score by first taking the log of each value and then by subtracting the median and dividing by the […].
(Time-resolved FRET reads energy transfer from a long-lived donor to a nearby acceptor.)
Turning to GAGCACAGUGCACGACCAATT against Mcfd2, the z-score is inactive: -0.532.

In the case of GGUGAAAUUUUAUGAAGAGTT against Grk3, the z-score was inactive: -0.342.

On to AGCCACUUAUGUUAAUAAATT against Pcbd2, for which the z-score is inactive: -0.115.

As for CGAGGCACUUCUCACUCAUTT against Cyp2c54, the z-score was inactive: 1.43.

For the sequence GGUUCAGAACAAAAUCUACTT against Cd209d, the z-score was inactive: 0.264.

GGCUAAUGUGCUUUCCCAUTT against Olfr643: the z-score was inactive: -0.0609.

GGAAACAUAACCUUCAAUGTT against Wdr3: the z-score is inactive: 1.13.

As for GGCCACUCGUUUUCUAAUUTT against Ccdc71l, the z-score was inactive: 0.407.

Regarding GGAAAUCUACAUCAUGGCUTT against Ift140, the z-score is active: -2.

For AGACCACAGUUAGCAGUGGTT against Pdcd2l, the z-score is inactive: -1.58.

With GGAGAUUGUUGACCUGGUCTT against Tuba3b, the z-score is active: 2.03.

Turning to UUUUUUUACUCAGUCCUCATT against Olfr538, the z-score is inactive: -0.728.

Turning to GGGACUUUCGUAAUAAACCTT against Lman1, the z-score was inactive: -1.26.

Turning to GGAGAUCAAAAACAGCUUUTT against Tob1, the z-score was inactive: -0.596.

Regarding GCAAAUGAGAGGUCUGUUGTT against Olfr1024, the z-score is active: -2.52.

As to GGGUGACAUCAUGACAGUGTT against Bcar1, the z-score was inactive: 0.763.

“GACUUAUAUUCCUCCAUCUTT against E330013P04Rik”: the z-score is inactive: 0.829.

Regarding GGUCAAGCCUUCCUUUUCUTT against Cldn23, the z-score is inactive: -0.908.

For GUGUAGUGAUCAAUAGAUCTT against LOC432823, the z-score was inactive: 0.821.

Regarding CGACUGUGGAAGGUUUGGUTT against Rubcn, the z-score is inactive: -0.297.

For the sequence CCAGAAUUGUUGUUUAUUCTT against Rbbp4, the z-score was inactive: -0.93.

As to GCCCUUUUGCCUCUGAACUTT against Capg, the z-score was inactive: -0.407.

Turning to GAGACAAUGCAGCAAAAUCTT against Gm839, the z-score is inactive: -1.13.

Turning to CGAACCUACAGAGCUCAUGTT against Rpl17, the z-score was inactive: 0.948.

Regarding CGGUCUGUGAAAGAUGCAGTT against Chmp3, the z-score is inactive: -0.033.

In the case of GGAACUAACGGAAUUACUGTT against Arl3, the z-score was inactive: 0.951.

As for GGAUGAAGGUGCUUUUAAATT against Gnrhr, the z-score was inactive: -0.917.

For GGUACAACUGCUCAUUUUUTT against Rhbdd1, the z-score is inactive: -0.0082.

In the case of GGCAAUCAGAUCAUUUACATT against Olfml1, the z-score was inactive: -0.0595.

For the sequence CGGGCAUAUUGAUGUUAAATT against Fech, the z-score is inactive: 1.09.

As to GCACAACGACCUUUCCAGGTT against Chst12, the z-score was inactive: -0.561.

For GCAGUCAUGCCCGAUCUUGTT against Sowaha, the z-score is inactive: -0.838.

On to CCCUCAAGUACGAAAUCAATT against Jagn1, for which the z-score was inactive: 0.611.

Regarding GCACUAUGGGUGUCAUGGUTT against Mon1a, the z-score is active: -3.1.

In the case of CGCUGUGCUGAGCUUACUUTT against D17H6S53E, the z-score was active: -2.36.

Regarding GGAGUUUAAGAAGACGCACTT against Slc26a3, the z-score was inactive: 1.62.

For the sequence “GGAUCGAACUGCCAUUGCUTT against A930104D05Rik”, the z-score was inactive: -0.201.

For “GGAGAGUGACUUGCAUUAUTT against 2310030G06Rik”, the z-score is inactive: -0.415.

Take GGGUUCCAGUUUGUUUCCUTT against Cnbp: the z-score is inactive: -0.901.

Consider GGCAUCGUCACCAAACUGUTT against Fgf11, for which the z-score is active: -2.51.

For GGACCUCUUCAAAACCACCTT against Ammecr1l, the z-score was inactive: -1.35.

CCCAGUUGAACAGAUUCCUTT against Olfr357: the z-score is inactive: -1.05.

In the case of AAUCCUGAUGCUACGCAUGTT against Phkg2, the z-score was inactive: -0.461.

Consider GGGCCUUCUGAUUUAAAAGTT against Slc43a3, for which the z-score was inactive: -1.01.

In the case of GGAGCUAAUCGCACUUAAATT against Tnnt3, the z-score is inactive: 0.135.

As to GGAAUCCAGCUUCGAUGUCTT against Ciapin1, the z-score is inactive: -0.15.

On to GGACAGCAUUAACAUUGUATT against Fbxo22, for which the z-score was inactive: -0.708.

Consider AAGGGAGUCCAGCAUUUCATT against Pitpnm3, for which the z-score was inactive: 0.0635.

Turning to CCCAUCACUUGAUUGCUUUTT against Kbtbd3, the z-score is inactive: 1.28.

In the case of GGGCAAUGUGCUACACCAUTT against Olfr640, the z-score was inactive: -0.428.

Take CCCAAGCCUACCUUACGAGTT against Hipk2: the z-score is inactive: -1.67.

As for “GCCCAACUUUAAUCUUAUATT against D630039A03Rik”, the z-score was inactive: 1.81.

For GGAAGCCACUUCAGAAGCUTT against Olfr412, the z-score is inactive: -0.216.

As for CCUGACCAAGGGACUCUCUTT against Plk5, the z-score is inactive: 0.195.

GCUCAGCUUAGCUGCUUUUTT against Olfr493: the z-score is inactive: 0.552.

In the case of GGUGGCUUUGCUGAAGUACTT against Acad12, the z-score is inactive: 0.285.

As for GGUGGAUGAGUUGUUCCUUTT against Adck5, the z-score is inactive: 0.637.

For the sequence GGAUGGAACAUAUGAUUAGTT against Vmn1r234, the z-score is inactive: 0.653.

Regarding GGAUUUAUCCUGGUGACUUTT against Cox20, the z-score is active: 2.49.

On to “GGUUACAGAGCUACAUCGATT against A930017M01Rik”, for which the z-score was inactive: -1.17.

Turning to GGACUGUGUCCUUCUAUGATT against Oas1f, the z-score is inactive: 0.103.

Take GCCAUAUGUCAAGCCUGACTT against Scrn3: the z-score was inactive: -1.6.

In the case of GGCAGUUUUAUGAACUAUUTT against Zfp3, the z-score is inactive: 1.69.

For GGACUCAAUAAGAACCUCGTT against Papss1, the z-score was inactive: -1.25.

For CCUUGUGAUGUUUAAAGACTT against Abcg1, the z-score is inactive: 0.293.

As for GGUUUGGAGUGACUUAAUATT against Scrn2, the z-score was inactive: 0.349.

Take GCACUGCCAGAGGUUCUGUTT against U90926: the z-score was inactive: -0.107.

Regarding CGAAGUGUUACUUUUUCAATT against Skp2, the z-score was inactive: 1.69.

For GAGCAGAGCCAAAUCAAAGTT against Psenen, the z-score is inactive: 0.00512.

In the case of GGCUCUGGAUGAAGAACUUTT against Gfpt2, the z-score is active: 4.13.

With GGAUUAGAUUAACCUCGACTT against Qrfp, the z-score was inactive: -1.15.

As for GCUUCCUACUCUCCAGUUUTT against Dmkn, the z-score is inactive: 0.981.

With GCUUUUGCCCGAUGGAUUUTT against Plpp3, the z-score was inactive: 0.136.

As to GCCCAAUAGCACAAAGAACTT against Lcor, the z-score was inactive: -0.407.

For GGACUUGGUGGUAUCUUACTT against Sult4a1, the z-score was inactive: 0.948.

On to GCCUAACAGGGUCAAAUCUTT against Olfr272, for which the z-score is inactive: 0.515.

With GCUUACUACUCCGUAAAUGTT against Aldh5a1, the z-score was inactive: -1.13.

As to GGCUCUUACUCCUGUAUGUTT against Thbd, the z-score was inactive: 1.2.

On to GGAAUCUCAGACCAUCCAGTT against Cpa3, for which the z-score was inactive: 0.132.

Take CCUCUUAAGUUUUCCAUGATT against Tuba1b: the z-score is inactive: -0.0656.

As to CUCCCAAAUACUGAUUAUATT against Trim6, the z-score was inactive: 0.0665.

Take GGCUAUGGAAAAAGAUAUGTT against Il21r: the z-score is inactive: -1.02.

For “GGUUUACUGGCCAAGAUGGTT against 4930579K19Rik”, the z-score was inactive: -0.327.

On to GCUGACCUUAAAUCCUGACTT against Pgpep1, for which the z-score was inactive: 0.834.

For GGGUAAAACCAUCAAGGAGTT against Aldh1l2, the z-score was inactive: -0.305.

For the sequence GGAAACCAGAGAACAAAACTT against Pmp22, the z-score is inactive: -0.0212.

For GGUCCGAAAUGAGUUUUACTT against Dnajc27, the z-score is inactive: 0.414.

Take CCUGUCAUCACACUCGAGGTT against Coro6: the z-score was inactive: -0.00248.

For GCAGUGUCCAGUAAAGAUUTT against Hdgfl1, the z-score was inactive: -0.0131.

Regarding CGCCUGACUUCGUGUAUUUTT against Prrg2, the z-score was inactive: -1.74.

On to UUCGCUCUUGGUCCCUUCATT against Olfr1322, for which the z-score was inactive: 1.06.

On to CCCAAAACGGAAUAAGCUATT against Dusp8, for which the z-score was inactive: -0.462.

As to GGAGGACUUAGAGAGUAUGTT against Ctdp1, the z-score is inactive: -0.595.

As to GGCAGCUCUUACAACAGUATT against Htr3b, the z-score was inactive: -1.47.

Consider GACAUAAGCGGUAACAUCATT against Gltp, for which the z-score is inactive: 1.19.

For the sequence GGAGAUGGAAGUAAUUUUUTT against Plk4, the z-score was inactive: -0.18.

For the sequence CCGUGGUUCUCUCUUAUAUTT against Olfr1106, the z-score was inactive: -1.1.

For the sequence GCCGAACUUCGGAAUUCUGTT against Nf1, the z-score was active: 2.08.

Consider CGAAGAUUGCUUCACAGGCTT against Spaca4, for which the z-score was inactive: -0.989.

Regarding GGCCUUACUAAAUAUACAUTT against Trpd52l3, the z-score was inactive: 1.1.

GCUAAGGCCUUUAUUCGCUTT against Tlr11: the z-score is inactive: 0.0562.

On to GCUCCACUGGCAGUCACUUTT against Sppl3, for which the z-score was inactive: 0.32.

For the sequence GGAAAAGUGAAGGUGAUUCTT against Hspa13, the z-score was inactive: -0.61.

On to CCUUCAUUAACUGUGCCUATT against Slc7a7, for which the z-score was inactive: -0.438.

Take GCUAGAAAUGAUUUAUGUGTT against Tceanc: the z-score is inactive: 0.622.

Consider GGACUGAAGGAUGCCUCAATT against Cngb1, for which the z-score was inactive: 0.78.
